## Cell number after 72 h of treatment

Values as published with doi:10.1371/journal.pone.0140310, rounded.

Drug key:
KU-0063794 (0.1 µM): COc1ccc(-c2ccc3c(N4CCOCC4)nc(N4C[C@@H](C)O[C@@H](C)C4)nc3n2)cc1CO
midostaurin (0.4 µM): CO[C@@H]1[C@H](N(C)C(=O)c2ccccc2)C[C@H]2O[C@]1(C)n1c3ccccc3c3c4c(c5c6ccccc6n2c5c31)C(=O)NC4
cediranib (2 µM): COc1cc2c(Oc3ccc4[nH]c(C)cc4c3F)ncnc2cc1OCCCN1CCCC1
tamatinib (2 µM): COc1cc(Nc2ncc(F)c(Nc3ccc4c(n3)NC(=O)C(C)(C)O4)n2)cc(OC)c1OC
docetaxel (0.0005 µM): CC(=O)O[C@@]12CO[C@@H]1C[C@H](O)[C@@]1(C)C(=O)[C@H](O)C3=C(C)[C@@H](OC(=O)[C@H](O)[C@@H](NC(=O)OC(C)(C)C)c4ccccc4)C[C@@](O)([C@@H](OC(=O)c4ccccc4)[C@H]21)C3(C)C
Src-I1 (10 µM): COc1cc2ncnc(Nc3ccc(Oc4ccccc4)cc3)c2cc1OC
indole-3-carbinol (4 µM): OCc1c[nH]c2ccccc12
veliparib (7 µM): C[C@]1(c2nc3c(C(N)=O)cccc3[nH]2)CCCN1
stibogluconate (10 µM): O=C(O)[C@@H]1[O][Sb](=[O])([O][Sb]2(=[O])[O][C@H]([C@H](O)CO)[C@H](O)[C@H](C(=O)O)[O]2)[O][C@H]([C@H](O)CO)[C@@H]1O (some centres undefined)
dovitinib (0.5 µM): CN1CCN(c2ccc3nc(-c4c(N)c5c(F)cccc5[nH]c4=O)[nH]c3c2)CC1
VX-702 (2 µM): NC(=O)c1ccc(N(C(N)=O)c2c(F)cccc2F)nc1-c1ccc(F)cc1F
NVP-BEZ235 (0.02 µM): Cn1c(=O)n(-c2ccc(C(C)(C)C#N)cc2)c2c3cc(-c4cnc5ccccc5c4)ccc3ncc21
gemcitabine (0.002 µM): Nc1ccn([C@@H]2O[C@H](CO)[C@@H](O)C2(F)F)c(=O)n1
lestaurtinib (0.02 µM): C[C@]12O[C@H](C[C@]1(O)CO)n1c3ccccc3c3c4c(c5c6ccccc6n2c5c31)CNC4=O
lenalidomide (5 µM): Nc1cccc2c1CN(C1CCC(=O)NC1=O)C2=O (centres undefined)
GSK650394 (0.8 µM): O=C(O)c1ccc(-c2c[nH]c3ncc(-c4ccccc4)cc23)cc1C1CCCC1
pazopanib (2 µM): Cc1ccc(Nc2nccc(N(C)c3ccc4c(C)n(C)nc4c3)n2)cc1S(N)(=O)=O
tipifarnib (0.05 µM): Cn1cncc1[C@@](N)(c1ccc(Cl)cc1)c1ccc2c(c1)c(-c1cccc(Cl)c1)cc(=O)n2C
CP-690550 (5 µM): C[C@@H]1CCN(C(=O)CC#N)C[C@@H]1N(C)c1ncnc2[nH]ccc12
IMD-0354 (0.08 µM): O=C(Nc1cc(C(F)(F)F)cc(C(F)(F)F)c1)c1cc(Cl)ccc1O
dorsomorphin (2 µM): c1cc(-c2cnn3cc(-c4ccc(OCCN5CCCCC5)cc4)cnc23)ccn1
STA-4783 (0.03 µM): CN(NC(=O)CC(=O)NN(C)C(=S)c1ccccc1)C(=S)c1ccccc1
nutlin-3 (0.5 µM): COc1ccc(C2=N[C@@H](c3ccc(Cl)cc3)[C@@H](c3ccc(Cl)cc3)N2C(=O)N2CCNC(=O)C2)c(OC(C)C)c1
bortezomib (0.005 µM): CC(C)C[C@H](NC(=O)[C@H](Cc1ccccc1)NC(=O)c1cnccn1)B(O)O
SU6656 (2 µM): CN(C)S(=O)(=O)c1ccc2c(c1)/C(=C/c1cc3c([nH]1)CCCC3)C(=O)N2
etoposide (0.1 µM): COc1cc([C@@H]2c3cc4c(cc3[C@@H](O[C@@H]3O[C@@H]5CO[C@@H](C)O[C@H]5[C@H](O)[C@H]3O)[C@H]3COC(=O)[C@H]23)OCO4)cc(OC)c1O
YM155 (0.002 µM): COCC[n+]1c2c(n(Cc3cnccn3)c1C)C(=O)c1ccccc1C2=O
AZD7762 (0.1 µM): NC(=O)Nc1cc(-c2cccc(F)c2)sc1C(=O)N[C@H]1CCCNC1
BI-D1870 (1 µM): CC(C)CCN1c2nc(Nc3cc(F)c(O)c(F)c3)ncc2N(C)C(=O)C1C (centres undefined)
GW0742 (10 µM): Cc1cc(SCc2sc(-c3ccc(C(F)(F)F)c(F)c3)nc2C)ccc1OCC(=O)O

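The test systems are human melanoma cell lines, treated with one drug for 72 h and then stained and imaged. Each value is the count of nuclei relative to DMSO-treated wells, in %, so that 100 equals the control. Every drug was used at one fixed concentration, the higher of two screened. These are primary screening values without error estimates.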
This is part of the screen, not chosen by result.

For lenalidomide the values were COLO 792: 69.8; SK-MEL-28: 57.0. For AZD7762 the values were COLO 792: 58.6; SK-MEL-28: 42.0. Results for GSK650394 are COLO 792: 82.5; SK-MEL-28: 101. For midostaurin the values were COLO 792: 49.1; SK-MEL-28: 36.6. For cediranib the values were COLO 792: 65.6; SK-MEL-28: 84.2.

With veliparib the screen read COLO 792: 91.8; SK-MEL-28: 83.5. For VX-702 the values were COLO 792: 88.7; SK-MEL-28: 92.4. For STA-4783 the values were COLO 792: 18.3; SK-MEL-28: 20.4. BI-D1870 gave COLO 792: 80.1; SK-MEL-28: 72.5. etoposide gave COLO 792: 106; SK-MEL-28: 92.8.

Results for bortezomib are COLO 792: 38.9; SK-MEL-28: 28.3. For tipifarnib the values were COLO 792: 85.8; SK-MEL-28: 77.0. NVP-BEZ235 gave COLO 792: 55.6; SK-MEL-28: 41.7. With indole-3-carbinol the screen read COLO 792: 139; SK-MEL-28: 189. With docetaxel the screen read COLO 792: 16.3; SK-MEL-28: 15.4.

With stibogluconate the screen read COLO 792: 85.1; SK-MEL-28: 136. Results for CP-690550 are COLO 792: 95.3; SK-MEL-28: 119. Results for pazopanib are COLO 792: 78.0; SK-MEL-28: 119. Results for tamatinib are COLO 792: 68.9; SK-MEL-28: 94.5. Results for IMD-0354 are COLO 792: 103; SK-MEL-28: 91.1.

For dorsomorphin the values were COLO 792: 79.7; SK-MEL-28: 69.0. Results for nutlin-3 are COLO 792: 86.7; SK-MEL-28: 55.1. lestaurtinib gave COLO 792: 55.4; SK-MEL-28: 56.1. For GW0742 the values were COLO 792: 101; SK-MEL-28: 98.3. dovitinib gave COLO 792: 93.7; SK-MEL-28: 63.5.

Src-I1 gave COLO 792: 89.1; SK-MEL-28: 56.3. YM155 gave COLO 792: 55.0; SK-MEL-28: 70.3. With KU-0063794 the screen read COLO 792: 86.2; SK-MEL-28: 106. With SU6656 the screen read COLO 792: 60.9; SK-MEL-28: 57.5. With gemcitabine the screen read COLO 792: 63.7; SK-MEL-28: 79.2.

Once more, the final 3:

Compound,COLO 792,SK-MEL-28
KU-0063794,86.2,106
SU6656,60.9,57.5
gemcitabine,63.7,79.2